The assay in a line: qHTS Assay for Modulators of Lamin A Splicing. As to conditions: HeLa LMNA splicing GFP/RFP minigene ratio, 48 h. The procedure, abridged:
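Read-out is the ratio of GFP to DsRed2 object intensity, acquired by 488 nm laser-scanning cytometry on HeLa lamin A-EGFP minigene reporter cells. Compound incubation 48 hrs at 37 °C in Opti-MEM with 2% FBS; DMSO 0.5% final.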
In general terms: In qHTS, concentration-response curves come from the screen itself.

Where [1] appears, read: measured here: GFP splicing reporter channel.
The mark [2] stands for this setting: measured here: RFP viability control channel.

The other results are listed elsewhere or left out. Further columns of the screen follow, without active or inactive calls. Most of these compounds were active or inconclusive in the main read-out, so they are no random draw. Potencies come from curve fits of mixed quality, noted in brackets.

In general, AC50 refers to the midpoint of the concentration-response curve, whichever way the signal moves. In the case of `O=C(NCc1ccco1)C(=O)NCC1OCCN1S(=O)(=O)c1ccc(Cl)cc1` (centres undefined), the concentration at half-maximal activity (AC50) under setting [1] was 0.708 µM [falling, single point].
The same measure, in the same setting: under `Cc1c(Cl)cccc1NC(=S)N1CCC(C(N)=O)(N2CCCCC2)CC1` stands 12.6 µM [rising, single point].
On to `Cc1ccc(-n2nnnc2SCC(=O)N(CC(C)C)c2c(N)n(CC(C)C)c(=O)[nH]c2=O)cc1`, for which the AC50 under setting [1] was 0.00316 µM [rising, full curve, poor fit].
For the molecule `Cc1ccc(S(=O)(=O)N2N=C3CCCCC3C2(O)C(F)(F)F)cc1` (centres undefined), the half-maximal activity concentration (AC50) reads like this: under setting [1], 0.00447 µM [rising, full curve, poor fit]; under setting [2], 0.00398 µM [rising, full curve, poor fit].
As for `CC1CCN(S(=O)(=O)N2CCC(C(=O)NCc3ccc4c(c3)OCO4)CC2)CC1`, the AC50 was 35.5 µM [rising, single point] under setting [1] and 35.5 µM [rising, single point] under setting [2].
As for `O=C(Nc1ccc(Cl)cc1)Nc1nnc(CSCc2ccccc2Cl)s1`, the AC50 is 17.8 µM [rising, single point] under setting [1] and 35.5 µM [rising, single point] under setting [2].
Regarding `NS(=O)(=O)c1ccc(CCN2C(=O)/C(=C\c3ccc(Cl)cc3)SC2=S)cc1`, the AC50 under setting [2] is 12.6 µM [rising, partial curve].
Regarding `COc1ccc(N2CC(NC(=O)C3CC3)CC2=O)cc1` (centres undefined), under setting [2], the AC50 was 25.1 µM [falling, single point].
With `COc1cccc(NC(=O)CSc2nc(=O)n(Cc3ccccn3)c3c2CCC3)c1`, the concentration at half-maximal activity (AC50) under setting [1] is 3.16 µM [falling, partial curve, poor fit].
Take `COCc1nc(-c2ccc(-c3ccc(C)cc3)nc2OC)no1`: the AC50 was 11.2 µM [rising, single point] under setting [1] and 10 µM [rising, single point] under setting [2].
Turning to `Cc1c(O)c2c3c(cccc3c1O)C(=O)N(c1ccccc1)C2=O`, under setting [2], the concentration at half-maximal activity (AC50) is 35.5 µM [rising, partial curve].
As for `CC1CCCCN1C(=O)COC(=O)/C=C/c1ccc2ccccc2n1` (centres undefined), the half-maximal activity concentration (AC50) under setting [1] is 22.4 µM [falling, single point].
In the case of `COc1ccc(N(C)S(=O)(=O)c2cccc(C(=O)NCc3ccc4c(c3)OCO4)c2)cc1`, the AC50 under setting [1] is 12.6 µM [falling, partial curve, poor fit] and the concentration at half-maximal activity (AC50) under setting [2] was 35.5 µM [falling, partial curve, poor fit].
On to `Cc1ccc(S(=O)(=O)NCCC(C)C)cc1[N+](=O)[O-]`, for which the half-maximal activity concentration (AC50) under setting [1] is 10 µM [rising, partial curve, poor fit].
In the case of `CC(C)Cc1nc2oc3c(NCc4cccnc4)ncnc3c2c2c1CCC2`, the AC50 runs as follows: under setting [1], 3.55 µM [rising, single point]; under setting [2], 5.62 µM [rising, single point].
As for `CCCN(CCC)C(=O)C1CCN(c2cc(C)nc3c(-c4ccc(OC)c(OC)c4)c(C)nn23)CC1`, under setting [2], the AC50 is 2.24 µM [rising, partial curve, poor fit].
For `Cc1c(C(=O)NCc2ccoc2)oc2ccc3c(c12)C(=O)CC(C)(C)O3`, the AC50 under setting [2] is 11.2 µM [rising, partial curve].
For the molecule `COc1ccc(C(C)=O)cc1CSc1nnc(Nc2ccc(C)cc2)s1`, the half-maximal activity concentration (AC50) under setting [2] is 14.1 µM [rising, single point].
Consider `CCOC(=O)c1[nH]c(C)c(CCC(=O)Nc2cccc(C(F)(F)F)c2)c1C`, for which the half-maximal activity concentration (AC50) under setting [1] was 11.2 µM [rising, partial curve, poor fit].
Take `Cc1ccccc1SCC(=O)N1CCN(c2ccc(C(F)(F)F)cn2)CC1`: the AC50 under setting [2] is 25.1 µM [rising, partial curve].
As to `CCN(CC)c1ccc(-c2nn3c(-c4cccnc4)nnc3s2)cc1`, the AC50 is, setting by setting: under setting [1], 11.2 µM [falling, partial curve]; under setting [2], 12.6 µM [falling, partial curve].
`COc1ccc(N2C(=O)/C(=C\c3ccco3)N=C2SCC(=O)NC(C)C)cc1Cl`: the AC50 under setting [2] was 31.6 µM [rising, partial curve, poor fit].
Same read-out and setting: with `COc1ccc(/C=C/c2nc(-c3ccccc3O)n[nH]2)cc1` the figure was 22.4 µM [rising, single point].
With `CCOC(=O)c1c(CSc2ccccc2)oc2ccc(O)cc12`, the half-maximal activity concentration (AC50) by setting is: under setting [1], 6.31 µM [rising, full curve]; under setting [2], 14.1 µM [rising, partial curve].
Consider `CN1CCN(C(=O)c2cc3ccccc3oc2=O)CC1`, for which the half-maximal activity concentration (AC50) was 0.794 µM [falling, full curve, poor fit] under setting [1] and 0.501 µM [falling, full curve, poor fit] under setting [2].
Take `Cc1ccc(C(=O)NCC(c2ccco2)S(=O)(=O)c2ccccc2)cc1C` (centres undefined): the AC50 is, setting by setting: under setting [1], 0.0251 µM [rising, full curve, poor fit]; under setting [2], 0.0251 µM [rising, full curve, poor fit].
On to `Cc1ccc(C(=O)Nn2c(O)c(C=C3N=c4ccccc4=N3)sc2=S)cc1`, for which the concentration at half-maximal activity (AC50) under setting [2] was 25.1 µM [falling, single point].
Regarding `CC(/C=N\NC(=O)Cn1c(C)nc2ccccc21)=C\c1ccccc1`, the AC50 under setting [1] was 35.5 µM [falling, single point] and the AC50 under setting [2] is 35.5 µM [falling, single point].
As for `Cc1nn(C)c(C(=O)Nc2cccc(CN3CCOCC3)c2)c1Br`, under setting [2], the half-maximal activity concentration (AC50) is 7.94 µM [rising, partial curve].
In the case of `Cc1ccc(NC(=O)COc2cccnc2[N+](=O)[O-])cc1S(=O)(=O)N1CCCCC1`, the AC50 by setting is: under setting [1], 15.8 µM [rising, single point]; under setting [2], 17.8 µM [rising, partial curve].
On to `Cc1ccc(C2CC(c3ccccc3)=NN2C(=O)CSc2nnc(-c3ccncc3)n2C)o1` (centres undefined), for which the concentration at half-maximal activity (AC50) under setting [1] is 20 µM [rising, single point].
For `O=C(Nc1ccc(Oc2cccnc2)cc1)c1cccc([N+](=O)[O-])c1`, the half-maximal activity concentration (AC50) under setting [2] was 15.8 µM [rising, partial curve].
With `COc1ccc(C)cc1S(=O)(=O)N(C)CC(=O)N1CCC(C(N)=O)CC1`, the concentration at half-maximal activity (AC50) under setting [2] was 1.58 µM [falling, full curve].
Still for that read-out and setting: with `Clc1ccccc1-c1nnc2sc(CCc3ccccc3)nn12` the figure was 6.31 µM [rising, partial curve].
In the case of `O=C(Cn1cnc2ccccc2c1=O)c1c[nH]c2ccccc12`, the concentration at half-maximal activity (AC50) reads like this: under setting [1], 35.5 µM [rising, single point]; under setting [2], 35.5 µM [rising, single point].
Turning to `OCCCNc1nc(-c2ccc(Br)cc2)nnc1-c1ccc(Cl)cc1`, the AC50 runs as follows: under setting [1], 14.1 µM [rising, partial curve, poor fit]; under setting [2], 22.4 µM [rising, partial curve].
Turning to `Cc1ccc(C(=O)N2CCN(c3ncnc4c(C)csc34)CC2)cc1`, under setting [1], the AC50 was 7.94 µM [falling, partial curve].
For the molecule `Cc1ccc(Cn2nnc3c(=O)n(Cc4ccccc4C)cnc32)cc1`, the concentration at half-maximal activity (AC50) under setting [2] is 5.62 µM [rising, single point].
Turning to `Cc1[nH]c(=S)sc1Cc1ccc(F)cc1`, the concentration at half-maximal activity (AC50) under setting [2] is 22.4 µM [rising, single point].
The same measure, in the same setting: with `CCOC(=O)C1=C(C)Nc2nnnn2C1c1ccc(OC)c(Br)c1` (centres undefined) the figure was 7.94 µM [rising, partial curve, poor fit].
On to `N[C@H](C(=O)N[C@@H]1C(=O)N2C(C(=O)O)=C(Cl)CS[C@@H]12)c1ccccc1`, for which the concentration at half-maximal activity (AC50) under setting [1] was 0.00398 µM [falling, full curve, poor fit].
On to `COc1cccc(-c2ccc3ncnc(NCCc4c[nH]c5ccc(OC)cc45)c3c2)c1`, for which the half-maximal activity concentration (AC50) runs as follows: under setting [1], 15.8 µM [falling, partial curve]; under setting [2], 17.8 µM [falling, partial curve].
With `CC(=O)NCCNc1ncnc2ccc(-c3ccccc3C)cc12`, the AC50 under setting [1] was 14.1 µM [falling, single point].
Take `COc1ccc(-c2csc(NC(=S)NC(=O)/C=C/c3ccco3)n2)cc1OC`: the AC50 under setting [2] was 2.51 µM [rising, partial curve].
On to `Fc1ccc(-n2c(-c3ccc4ccccc4n3)n[nH]c2=S)cc1`, for which, under setting [1], the AC50 was 2.82 µM [falling, full curve, poor fit].
For the molecule `CCN(CC)S(=O)(=O)c1ccc(NCc2ccccc2)nc1`, the AC50 under setting [2] is 20 µM [rising, single point].
Regarding `COc1ccccc1NC(C)C(=O)N/N=C/c1ccccc1OCc1cccc(Br)c1` (centres undefined), the half-maximal activity concentration (AC50) under setting [2] was 25.1 µM [rising, single point].
Same read-out and setting: with `Cc1ccc(S(=O)(=O)N2CCCN(S(=O)(=O)c3ccc4c(c3)OCCO4)CC2)cc1` the figure was 15.8 µM [rising, partial curve].
With `O=C(NCc1ccco1)c1ccc(S(=O)(=O)N2CCCc3ccccc32)cc1`, the AC50 under setting [2] is 15.8 µM [rising, single point].
On to `Cc1ccc(OCCSCc2nnc(NC(=O)Nc3cccc(Cl)c3)s2)cc1`, for which the concentration at half-maximal activity (AC50) reads like this: under setting [1], 2.51 µM [rising, partial curve]; under setting [2], 3.98 µM [rising, partial curve].
For `Cc1nnc(NC(=O)CSc2ccc(-c3ccc(Cl)cc3)nn2)s1`, the AC50 under setting [1] is 0.112 µM [rising, full curve, poor fit].
On to `NS(=O)(=O)c1ccc(CCNC(=O)Nc2ccc(Cl)c(Cl)c2)cc1`, for which the AC50 runs as follows: under setting [1], 12.6 µM [rising, partial curve]; under setting [2], 12.6 µM [rising, partial curve].
On to `O=C(C1CCC(Cn2c(=O)c3sccc3n(Cc3ccccc3F)c2=O)CC1)N1CCOCC1` (centres undefined), for which the AC50 under setting [1] was 0.00316 µM [falling, full curve, poor fit] and the AC50 under setting [2] was 0.00447 µM [falling, full curve, poor fit].
Consider `O=[N+]([O-])c1cc(S(=O)(=O)NCCN2CCOCC2)ccc1Sc1nnnn1-c1ccccc1`, for which the AC50 by setting is: under setting [1], 35.5 µM [falling, partial curve, poor fit]; under setting [2], 3.16 µM [falling, partial curve, poor fit].
On to `CCN(CC)S(=O)(=O)c1cc([N+](=O)[O-])ccc1NNC(=O)Nc1ccc(Cl)c(Cl)c1`, for which the AC50 under setting [2] is 17.8 µM [rising, single point].
